The test deals with PrgK_(SLT-CHAP) (residues 530-871) (Enterococcus faecalis (plasmid pCF10)) (UniProt Q5G3P4). Nature of the test: non-reducing SDS-PAGE; both purified.

Results are given in words; binding and its absence hold for the method and conditions named.

Take “PrgK_(SLT-CHAP) (residues 530-871) (from UniProt Q5G3P4 530-871) (domain or fragment)”: the binding result is given as “no binding (condition: with the reducing agent TCEP)”.

Source of the values: paper PMC11323569 (mBio, 2024).
